Measurements reported in PubChem BioAssay AID540276 (National Center for Advancing Translational Sciences (NCATS), 2011).
In all, about 300,000 compounds went through this assay and about 5,400 (1.8%) were called active. The shares of active, inactive and inconclusive entries below differ from those in the screen. Calls follow the shape of the full dose curve; tested in HEK293 cells. Where the call is inconclusive, the potency comes from a doubtful curve fit.
% is scaled to controls: 0 for no effect and ±100 for the full control effect; potency is read from the fitted curve at half-maximal effect.

Assay: qHTS for inhibitors of binding or entry into cells for Marburg Virus
Settings: Marburg virus pseudotyped entry inhibition, cell reporter; activity change, negative = inhibition: at 37.8 µM (top of the series) unless noted
For `COc1ccc(-c2cc(C(F)F)n3ncc(C(=O)N4CCCCC4)c3n2)cc1`, the Potency was inconclusive: 6.51 µM [inhibitor, partial curve, poor fit]. In the case of `CC(C)CN(CCNC(=O)CN1C(=O)COc2ccc(S(=O)(=O)N3CCC(C)CC3)cc21)CC(C)C`, the “activity change, negative = inhibition” value is reported as inactive: -12.6% [at 46.1 µM]. With `Cc1ccc(S(=O)(=O)NCCC(=O)OC(C)C(=O)NC2CC2)cc1` (stereo unspecified) the Potency was inconclusive: 0.316 µM [inhibitor, partial curve, poor fit]. In the case of `CCc1ccccc1N1CC(c2nc3ccccc3n2Cc2cccc(C)c2)CC1=O` (stereo unspecified), the “activity change, negative = inhibition” value is reported as inactive: -29.2% [at 46.1 µM]. For `Cc1cc(NC(=O)CSCC(=O)Nc2cc(C(F)(F)F)ccc2N2CCCCC2)no1`, the “activity change, negative = inhibition” value was inactive: -9.58%. In the case of `COc1cc(C(=S)N2CCOCC2)ccc1OS(=O)(=O)c1ccccc1[N+](=O)[O-]`, the “activity change, negative = inhibition” value is reported as inactive: 15.7% [at 46.1 µM]. In the case of `COCCCNCCCOc1ccc(Cl)cc1C(C)(C)C`, the Potency is reported as inconclusive: 18.4 µM [inhibitor, partial curve, poor fit]. With `CCCCNC(=O)c1ccc2c(=O)n(-c3ccccc3)c(=O)[nH]c2c1` the “activity change, negative = inhibition” value was inactive: 10.4% [at 46.1 µM]. For `Nc1ccc(-c2nc3cc(N)ccc3s2)cc1`, the Potency was inconclusive: 12.6 µM [inhibitor, single point]. With `COc1ccccc1C(=O)NCC(=O)OCC(=O)N1CC(C)OC(C)C1` (stereo unspecified) the Potency was inconclusive: 5.62 µM [activator, single point]. In the case of `O=C(NCC1CCCN1S(=O)(=O)c1cccs1)C(=O)Nc1ccc(F)cc1` (stereo unspecified), the Potency is reported as inconclusive: 14.1 µM [activator, single point]. In the case of `Cc1ccc(NC(=O)CN2CCOCC2)cc1S(=O)(=O)N1CCCCC1`, the “activity change, negative = inhibition” value is reported as inactive: -18.1%. With `O=C(N/N=C/c1ccccc1O)c1cccc(C(F)(F)F)c1` the Potency was active: 5.62 µM. For `CCCCN(C)CCNC(=O)C(NC(=O)C1CCC(C)CC1)C(C)C` (stereo unspecified), the “activity change, negative = inhibition” value was inactive: 3.32% [at 46.1 µM]. For `O=C(CSCc1cccc(CSCC(=O)Nc2ccc3ccccc3c2)n1)Nc1ccc2ccccc2c1`, the Potency was inconclusive: 35.5 µM [inhibitor, single point]. With `CC1CN(Cc2nc3c(c(=O)n(C)c(=O)n3C)n2CCc2ccccc2)CC(C)O1` (stereo unspecified) the “activity change, negative = inhibition” value was inactive: 1.04% [at 46.1 µM]. With `Cc1cc(C)c(NC(=O)Cn2c(=O)n(CCC(=O)NCc3ccc4c(c3)OCO4)c(=O)c3ccccc32)c(C)c1` the Potency was inconclusive: 10 µM [activator, partial curve, poor fit]. For `CCCCn1c(CCC)nc([N+](=O)[O-])c1Sc1ccc(Cl)cn1`, the Potency was inconclusive: 11.6 µM [inhibitor, partial curve, poor fit]. In the case of `C/C(=N\NC(=O)c1c[nH]c2ccccc12)c1ccccn1`, the Potency is reported as inconclusive: 3.55 µM [inhibitor, full curve, poor fit]. For `CC12CCC(=O)N1C(C(=O)Nc1ccccc1N1CCCC1)CS2` (stereo unspecified), the Potency was inconclusive: 2.24 µM [inhibitor, full curve]. With `O=C(CSc1nnc(Cc2cccs2)n1C1CCCCC1)N1CCCc2ccccc21` the Potency was inconclusive: 22.4 µM [inhibitor, single point]. For `O=C(Nc1cccc(NC(=O)c2ccc(-c3ccc(Br)cc3)o2)c1)c1ccco1`, the Potency was inconclusive: 5.17 µM [inhibitor, partial curve, poor fit]. For `C=CCNC(=O)NC(=O)COC(=O)C(C)Oc1ccc(Cl)cc1Cl` (stereo unspecified), the “activity change, negative = inhibition” value was inactive: 23.1% [at 46.1 µM]. For `O=C(Nn1cnc2ccccc2c1=O)c1ccc(Br)cc1`, the Potency was inconclusive: 6.31 µM [activator, single point]. In the case of `Cc1nc(-c2nnc(-c3ccccc3)o2)c(C(F)(F)F)o1`, the Potency is reported as inconclusive: 10 µM [activator, partial curve, poor fit]. For `COCCNC(=O)/C(C#N)=C/c1cccc(/C=C(\C#N)C(=O)NCCOC)c1`, the Potency was inconclusive: 20 µM [inhibitor, partial curve, poor fit]. In the case of `CN1CCN(C2Cc3ccc(F)cc3Sc3cc(F)c(Cl)cc32)CC1` (stereo unspecified), the Potency is reported as inconclusive: 12.6 µM [inhibitor, partial curve, poor fit]. In the case of `C=CCOc1ccc(CN(C)C(=O)CNC(=O)c2ccc(-c3ccccc3)cc2)cc1`, the Potency is reported as inconclusive: 14.1 µM [inhibitor, single point]. With `CCC(=O)Nc1ccc2nc(SCC(=O)N3CCc4ccccc43)sc2c1` the Potency was inconclusive: 0.562 µM [inhibitor, full curve, poor fit]. With `Cc1ccc(C(=O)c2c(NC(=O)c3ccncc3)sc3c2CCCC3)cc1` the Potency was inconclusive: 29.1 µM [inhibitor, single point]. For `c1ccc(-c2cc(-c3nc4ccccc4[nH]3)c3ccccc3n2)cc1`, the Potency was inconclusive: 4.47 µM [inhibitor, partial curve, poor fit]. With `CC1(C)OC(=O)C(=CNc2ccc(F)cc2)C(=O)O1` the “activity change, negative = inhibition” value was inactive: 25.6%. With `COc1ccc(C(=O)C(=NNc2ccccc2)c2ccc(OC)cc2)cc1` the Potency was inconclusive: 35.5 µM [inhibitor, single point]. In the case of `CCC(C)c1ccccc1N1CC(C(=O)N2CCN(S(=O)(=O)c3ccccc3Br)CC2)CC1=O` (stereo unspecified), the “activity change, negative = inhibition” value is reported as inactive: 1.33% [at 46.1 µM]. With `O=S(=O)(NCCSCc1c(Cl)cccc1Cl)c1ccc2c(c1)OCCO2` the “activity change, negative = inhibition” value was inactive: -25.8%. With `CCN(CC)C(=O)CN1C(=O)C(=O)c2ccccc21` the Potency was inconclusive: 7.94 µM [inhibitor, partial curve]. With `CCc1ccc(NC(=O)c2noc3c2CCCCC3)cc1` the Potency was inconclusive: 0.082 µM [activator, full curve]. In the case of `COc1ccc(S(=O)(=O)N2CCOCC2)cc1NC(=O)c1ccccc1-c1ccc(C(F)(F)F)cc1`, the Potency is reported as inconclusive: 35.5 µM [activator, single point]. In the case of `O=C(Nc1noc2ccccc12)c1cccc(F)c1`, the Potency is reported as inconclusive: 5.62 µM [activator, single point]. With `CCN(CC(=O)Nc1ccc(N2CCOCC2)cc1)CC(=O)NC(C)(C)C` the Potency was inconclusive: 1.12 µM [activator, full curve, poor fit]. In the case of `Cc1cc(N(C)C)ccc1N=Nc1ccc(N)cc1`, the Potency is reported as inconclusive: 7.08 µM [inhibitor, partial curve, poor fit]. In the case of `Cc1nc2nc(C)c(CCC(=O)NCCCN3CCN(c4cccc(Cl)c4)CC3)c(C)n2n1`, the Potency is reported as “inactive”. For `Clc1ccc(CSc2nnc(-c3sccc3-n3cccc3)o2)cc1`, the Potency was inconclusive: 10 µM [inhibitor, partial curve, poor fit]. In the case of `Cc1ccc(-c2nnc(N3CCN(C(=O)CN4C(=O)c5ccccc5C4=O)CC3)c3ccccc23)cc1`, the Potency is reported as “inactive”. With `CN(CCc1ccccn1)C(=S)Nc1ccc(Cl)c(Cl)c1` the Potency was inconclusive: 35.5 µM [inhibitor, single point]. For `CC1CCN(S(=O)(=O)c2ccc(NC(=O)c3ccncc3)cc2)CC1`, the Potency was inconclusive: 10 µM [inhibitor, partial curve, poor fit]. For `c1ccc(OCCSc2nnnn2-c2ccccc2)cc1`, the Potency was inconclusive: 35.5 µM [inhibitor, single point]. With `COc1cccc(C(=O)Nc2nnc(-c3cccs3)s2)c1` the Potency was inconclusive: 5.01 µM [inhibitor, partial curve, poor fit]. With `N#Cc1cc2c(nc1SCC(=O)Nc1sc3c(c1C#N)CCC3)CCCCC2` the Potency was inconclusive: 32.6 µM [inhibitor, single point]. For `CCc1ccc(OCc2nc(-c3ccccn3)no2)c(Br)c1`, the Potency was inconclusive: 13 µM [inhibitor, partial curve, poor fit]. In the case of `Nc1c(-c2ccc(Cl)cc2)cnn1-c1cc(C(F)(F)F)cc(C(F)(F)F)c1`, the Potency is reported as inconclusive: 11.2 µM [inhibitor, partial curve, poor fit]. With `CC(=O)OCC[n+]1c(C)n(-c2ccccc2)c2ccc(Cl)cc21` the Potency was inconclusive: 3.55 µM [inhibitor, single point]. For `CCSc1nnc(-c2ccc(S(=O)(=O)N3CCOCC3)cc2)n1C`, the “activity change, negative = inhibition” value was inactive: -7.98% [at 46.1 µM]. For `Cc1cc(=O)n2c(C(=O)Nc3ccc(C(=O)OC(C)C)cc3)c(C(=O)Nc3ccccc3)sc2n1`, the Potency was inconclusive: 32.6 µM [inhibitor, single point]. For `O=S(=O)(c1ccccc1)c1nc(-c2ccco2)oc1NCCCN1CCOCC1`, the “activity change, negative = inhibition” value was inactive: -5.98%. For `S=C(NC1CCCCC1)c1ccc2c(c1)OCO2`, the Potency was inconclusive: 9.2 µM [activator, partial curve, poor fit]. In the case of `Cc1nc2ccc3nc(NC(=O)c4ccc5c(c4)OCCO5)sc3c2s1`, the Potency is reported as “inactive”. With `NCCc1nc(-c2ccccc2)cs1` the Potency was inconclusive: 8.91 µM [inhibitor, partial curve, poor fit]. With `CSc1ccccc1OCc1cc(C(=O)N2C[C@H]3CC[C@H]2C3)no1` the Potency was inconclusive: 7.94 µM [inhibitor, partial curve, poor fit]. In the case of `O=C(Nc1ccc(C(F)(F)F)cc1)C1CC(=O)N(c2ccc3c(c2)OCCO3)C1` (stereo unspecified), the Potency is reported as inconclusive: 2.24 µM [inhibitor, partial curve, poor fit]. In the case of `Cc1c(C(=O)Nc2nccs2)oc2ccc(Br)cc12`, the Potency is reported as inconclusive: 12.6 µM [inhibitor, single point]. With `CCOC(=O)C1CCN(C(=O)COC(=O)CNC(=O)c2ccc(C(C)(C)C)cc2)CC1` the “activity change, negative = inhibition” value was inactive: 2.67%. In the case of `C#CCn1cc(/C=N/NC(=O)COc2cccc3cccnc23)c2ccccc21`, the Potency is reported as inconclusive: 35.5 µM [inhibitor, single point]. For `CCOC(=O)C(C)(C)N(Cc1cccc(C)c1)S(=O)(=O)c1ccc(Cl)c([N+](=O)[O-])c1`, the Potency was inconclusive: 10 µM [inhibitor, single point]. With `CC(C)Oc1cccc(C(=O)NC(=S)Nc2ccc(Cl)c(C(=O)O)c2)c1` the Potency was inconclusive: 20.6 µM [activator, single point]. With `CC(C)(C)NC(=O)c1cccc(NC(=O)Cc2ccc(Br)cc2)c1` the Potency was inconclusive: 7.08 µM [inhibitor, partial curve].
